Laboratory results taken from patent EP3842803A1, “CXCL14 IN POLYCYSTIC OVARY SYNDROME” (Katholieke Universiteit Leuven, priority 2019, dated 2021).
For at least one compound, name, drawing or mass did not settle the structure.

Legend:
[1] = system: SGBS human pre-adipocytes; assay: Adipogenic differentiation of SGBS pre-adipocytes (lipid droplets, FABP4 and UCP1 expression); type: cell-based; conditions: lipid droplet accumulation and expression of FABP4 and UCP1 (Figures 2C, 2D)
CXCL14 mRNA expression [2] = assay: CXCL14 transcript levels (qRT-PCR) in already differentiated SGBS adipocytes treated acutely (24h); type: cell-based, human; conditions: acute 24h treatment; spironolactone at 10 µM (Figure 3A)
Protocol: (§1) • Figure 1 • A. Baseline circulating CXCL14 concentrations in girls with polycystic ovary syndrome (PCOS, N= 52) and in healthy age-matched controls (N= 21). Data are mean + SEM. • B. Longitudinal results of CXCL14 serum concentrations in girls with PCOS who received an oral contraceptive (OC, white circles, N= 16) or low-dose spironolactone, pioglitazone and metformin (SPIOMET, black circles, N= 15). […] SGBS human pre-adipocytes were treated chronically (10 days) with pioglitazone, spironolactone or metformin alone (A) or in combination (B, C, D) at the indicated doses across the adipoipogeic differentiation process. • A, B. CXCL14 transcript levels are presented as means + SEM from 4-5 independent experiments, and are expressed relative to values from untreated control cells. • C. […] SGBS cells were treated acutely (24h, at the indicated doses) when already differentiated adipocytes.
(§2) Cell culture reagents and drugs were from Sigma.

CXCL14 mRNA expression [3] = type: cell-based, human; conditions: each drug alone, 10 days across differentiation (Figure 2A)
Protocol: as §1, §2

With CCc1ccc(CCOc2ccc(CC3SC(=O)NC3=O)cc2)nc1 (stereo not drawn) [pioglitazone] the adipogenic differentiation [1] was “strong positive effect”, the “CXCL14 mRNA expression on already differentiated human adipocytes” value (CXCL14 mRNA expression [2]) was “Neither pioglitazone nor metformin alone had any effect” and the “CXCL14 mRNA expression” value (CXCL14 mRNA expression [3]) was “dose-response dramatic effect inducing CXCL14 mRNA expression”.
